# Experimental data as given in publication PMC10985101.
# The chains behind the UniProt entries cited, without tags or fusion partners. Residues count along the entry.
# UniProt P02545, residues 1-646: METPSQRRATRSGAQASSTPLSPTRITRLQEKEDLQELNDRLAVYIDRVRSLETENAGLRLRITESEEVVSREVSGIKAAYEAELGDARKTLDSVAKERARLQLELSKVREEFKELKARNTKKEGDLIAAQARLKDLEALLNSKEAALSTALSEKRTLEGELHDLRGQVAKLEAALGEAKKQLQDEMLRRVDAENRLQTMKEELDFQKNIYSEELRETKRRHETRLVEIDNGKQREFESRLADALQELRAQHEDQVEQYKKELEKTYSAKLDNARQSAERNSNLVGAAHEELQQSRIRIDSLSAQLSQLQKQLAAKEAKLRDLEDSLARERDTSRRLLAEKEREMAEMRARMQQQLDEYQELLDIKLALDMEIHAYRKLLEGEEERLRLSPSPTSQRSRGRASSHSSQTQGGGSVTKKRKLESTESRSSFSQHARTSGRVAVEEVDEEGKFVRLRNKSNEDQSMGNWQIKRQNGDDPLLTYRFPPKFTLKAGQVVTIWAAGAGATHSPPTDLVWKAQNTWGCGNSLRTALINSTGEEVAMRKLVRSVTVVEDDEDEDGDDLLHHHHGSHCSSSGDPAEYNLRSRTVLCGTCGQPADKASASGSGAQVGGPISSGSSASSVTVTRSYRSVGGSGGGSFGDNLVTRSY
# UniProt P20700: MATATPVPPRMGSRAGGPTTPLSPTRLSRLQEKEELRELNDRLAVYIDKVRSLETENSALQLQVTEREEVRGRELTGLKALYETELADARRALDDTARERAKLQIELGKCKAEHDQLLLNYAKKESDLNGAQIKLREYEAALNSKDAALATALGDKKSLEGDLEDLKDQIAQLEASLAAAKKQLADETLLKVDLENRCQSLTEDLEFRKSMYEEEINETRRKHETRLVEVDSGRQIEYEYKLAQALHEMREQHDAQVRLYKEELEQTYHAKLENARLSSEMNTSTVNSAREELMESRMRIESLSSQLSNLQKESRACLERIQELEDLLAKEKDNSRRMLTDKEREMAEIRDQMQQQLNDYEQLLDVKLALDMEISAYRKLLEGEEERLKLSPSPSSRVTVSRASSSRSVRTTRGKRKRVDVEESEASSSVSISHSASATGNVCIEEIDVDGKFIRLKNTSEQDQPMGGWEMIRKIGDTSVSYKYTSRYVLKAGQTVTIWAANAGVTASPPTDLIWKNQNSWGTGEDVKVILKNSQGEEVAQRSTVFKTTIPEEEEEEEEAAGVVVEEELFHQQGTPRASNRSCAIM
# Results are given in words; binding and its absence hold for the method and conditions named. Binding seen in cells or lysates may run through a third protein. Some results given as binding are weak or reduced against the parent protein; the word gives no strength. Sequences can lack the tags named with a protein.
# Key:
# [1] = molecular target: T1, His-CREB3-CF fusion protein (cleaved form of cyclic AMP-responsive element-binding protein 3) (UniProt O43889); assay: pull-down; His-CREB3-CF on HisPur Ni-NTA resin, combined with HEK293T lysates with transiently expressed mCherry-Lamin A or mCherry-Lamin B1, overnight at 4 °C; washed with 100 mM NaCl, 20 mM Tris pH 8.0, 1 mM EDTA, 0.5% NP-40; Western blot; only the target purified
# T1 sequence: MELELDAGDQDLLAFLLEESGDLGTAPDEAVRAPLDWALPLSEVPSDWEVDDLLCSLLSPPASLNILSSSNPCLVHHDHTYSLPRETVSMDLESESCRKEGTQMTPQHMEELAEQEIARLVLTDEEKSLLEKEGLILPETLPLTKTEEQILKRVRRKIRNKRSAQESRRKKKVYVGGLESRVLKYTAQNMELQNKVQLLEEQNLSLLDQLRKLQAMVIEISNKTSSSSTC
# Myc-CREB3-CF = molecular target: T2, Myc-CREB3-CF (UniProt O43889); assay: co-IP; IP with Myc-CREB3-CF and its serial deletion mutants; lysates (150 μg) with antibody at 4 °C for 4 h or overnight, protein G Sepharose beads; washed with 20 mM Tris pH 8.0, 100 mM NaCl, 1 mM EDTA, 0.5% NP-40; Western blot
# T2 sequence: T1 sequence
binding [1],binding (Myc-CREB3-CF),Substance
binds,–,mCherry-Lamin A (from UniProt P02545 1-646)
–,binds,Lamin B1 (as in the IP of Fig. 3c) (from UniProt P20700 1-586)
binds,–,mCherry-Lamin B1 (from UniProt P20700 1-586)
